# From paper PMC7819943, “Rice protein-binding microarrays: a tool to detect cis-acting elements near promoter regions in rice”
# Chains of the proteins cited; added tags and fusions are not shown.
# UniProt Q0JBA9, entry or part of it: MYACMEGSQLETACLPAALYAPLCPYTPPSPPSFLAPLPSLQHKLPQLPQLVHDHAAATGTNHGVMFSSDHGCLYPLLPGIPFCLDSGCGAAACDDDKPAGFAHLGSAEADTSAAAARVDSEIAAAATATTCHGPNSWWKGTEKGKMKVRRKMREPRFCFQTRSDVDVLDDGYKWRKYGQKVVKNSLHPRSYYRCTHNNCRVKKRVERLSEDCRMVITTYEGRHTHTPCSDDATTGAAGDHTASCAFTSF
# This is one part of the list.
# Biological target: OsWRKY34 (Oryza sativa, UniProt Q0JBA9 1-250)
# Test: protein-binding microarray (RPBM); PBS, 2% BSA, 51.3 ng/ul salmon testes DNA, 50 uM zinc acetate, 200 nM TF, 25 C, 1 h; high values mean tight binding
# Conditions: protein: recombinant; tags: N-terminal polyhistidine and DsRed monomer fusion (pET32a); label: CyDye5-dUTP incorporated in the synthesized complementary strand; 3' TTTTT single-stranded linker to array surface; dsDNA, one strand shown
# Procedure, shortened: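 Binding signal is defined as the fluorescence intensity of each feature in arbitrary units, read on an Axon 4000B scanner. Transcription factors with N-terminal polyhistidine and DsRed fusions came from E. coli BL21-CodonPlus and were purified on Ni–NTA. They were incubated at 200 nM for 1 h at 25 °C on a custom Agilent array that had been made double-stranded with Cy5-dUTP, with 50 µM zinc acetate present, and the array was washed.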
row,Sequence,binding signal
1,ACGCTTTTTATTCTTTTTCAGATGTAGCCTTGCAGTGTAACGGAGTCACCTAGTGCAG,8890 fluorescence intensity (a.u.)
2,GCACTGATATATTTATTCTCTTCTTTAGTAGACCTACTGACGGAGTCACCTAGTGCAG,8250 fluorescence intensity (a.u.)
3,CCATGGATGCCGACGTCGTAATGGCTTCTCTCTCTGCTGTCGGAGTCACCTAGTGCAG,8750 fluorescence intensity (a.u.)
4,TACATGTGGGTCCCATGGGTTTTATTATCTTTTTCGGATCCGGAGTCACCTAGTGCAG,9360 fluorescence intensity (a.u.)
5,CCCTATACCATTTTCTTTTTCATATTTTTTTCTCGAAAACCGGAGTCACCTAGTGCAG,8840 fluorescence intensity (a.u.)
6,CCATTCACAAATCATGTTGAGTCGAACCATCAAATTTTGCCGGAGTCACCTAGTGCAG,8060 fluorescence intensity (a.u.)
7,TCTCACTGTTACCGTACGCGACCACACTTTATATCGGACCCGGAGTCACCTAGTGCAG,9420 fluorescence intensity (a.u.)
8,AATCTGTAATTTGTTTTGTTATTAGTCTACAGGCCTGTTCCGGAGTCACCTAGTGCAG,10400 fluorescence intensity (a.u.)
9,GCCCGTCCCCGTCTCGTGTCGTCTCGCGTCCTAACCTAAACGGAGTCACCTAGTGCAG,8390 fluorescence intensity (a.u.)
10,GGTCGCCTCTGCTCTGGTAGCACAATGTGCAATTTACTTACGGAGTCACCTAGTGCAG,9430 fluorescence intensity (a.u.)
11,TGTAATGTTTTTCTGTATGCAGCACCACCGCTTTCAACTCCGGAGTCACCTAGTGCAG,8710 fluorescence intensity (a.u.)
12,AGATTAGTTTTCCCATATATTTCTTGTCAGTCGTCGTCATCGGAGTCACCTAGTGCAG,8970 fluorescence intensity (a.u.)
13,CCGTCCACGCGCGATTCCTCCCCTCCACCCGCGCCATCTCCGGAGTCACCTAGTGCAG,8110 fluorescence intensity (a.u.)
14,CTATACTCACCCACTTGCCAATTTGCCATTGCCAACACCTCGGAGTCACCTAGTGCAG,9100 fluorescence intensity (a.u.)
15,TAATCCGCACGCCGCCGCCTCCCTCTCTGCTTCGCACTCCCGGAGTCACCTAGTGCAG,9270 fluorescence intensity (a.u.)
16,GCAGATTCGCCGCTGCCACCGCATCCCGCCCACCCACCGCCGGAGTCACCTAGTGCAG,11700 fluorescence intensity (a.u.)
17,ACCACCAACACCACAATATATGGTCCTCTACTATCTTAATCGGAGTCACCTAGTGCAG,9720 fluorescence intensity (a.u.)
18,ATCTTGTGACAACTTTTTTCTCTTTACCTTTCTCTATATTCGGAGTCACCTAGTGCAG,9930 fluorescence intensity (a.u.)
19,AGCTGCAAACCTCTTACTGTTTCTGATAATCTTCCTATGACGGAGTCACCTAGTGCAG,8200 fluorescence intensity (a.u.)
20,CTCCACACAGACACACATCCCACCCCACCCACATACACACCGGAGTCACCTAGTGCAG,13200 fluorescence intensity (a.u.)
21,ACTTGCACGTACGCTTTCCCATTCTCTTTTGCTTAAACCGCGGAGTCACCTAGTGCAG,13300 fluorescence intensity (a.u.)

# Quoted from the listing.
# binding signal, CTATACTCACCCACTTGCCAATTTGCCATTGCCAACACCTCGGAGTCACCTAGTGCAG is entered as 9100 fluorescence intensity (a.u.)
# binding signal, CCATTCACAAATCATGTTGAGTCGAACCATCAAATTTTGCCGGAGTCACCTAGTGCAG is entered as 8060 fluorescence intensity (a.u.)

# Next part:

row,Sequence,binding signal
1,TTCTATAGCTTTCCATGAACCAGATGCCCTTTGATCTATACGGAGTCACCTAGTGCAG,9000 fluorescence intensity (a.u.)
2,GGACAATGACAGCACATTACGCGCACCTTTTCTTCTACCACGGAGTCACCTAGTGCAG,13300 fluorescence intensity (a.u.)
3,CTATCATCTTTCTTCCCACATCGTCTATTCCCTAAAGAATCGGAGTCACCTAGTGCAG,11800 fluorescence intensity (a.u.)
4,TCGCCTCCTCCGGCTTATAAATGGCGGCCACCACCTTCACCGGAGTCACCTAGTGCAG,8440 fluorescence intensity (a.u.)
5,ACCTGCCTCGATCTCGCTCTCGCTCTCGCTCTCTACCCGACGGAGTCACCTAGTGCAG,9500 fluorescence intensity (a.u.)
6,GCACCCGTTTTTCTACTGGATTTTTCTCTGCGTCCTCTGCCGGAGTCACCTAGTGCAG,9340 fluorescence intensity (a.u.)
7,AAATTCCCACACACACACACACACACACACACACACACACCGGAGTCACCTAGTGCAG,8560 fluorescence intensity (a.u.)
8,TTGATTTCCTGCTGCTCCATTGGTTCTTGCTCTTGTTCTTCGGAGTCACCTAGTGCAG,12900 fluorescence intensity (a.u.)
9,TTTTTTCCTAGTCAACCCGATCGAGATCCCATCCCGTTTACGGAGTCACCTAGTGCAG,8110 fluorescence intensity (a.u.)
10,GGTAGAGGAGGGAGGGGAGGCGCAGGGGCAGTGGCCCGACCGGAGTCACCTAGTGCAG,10100 fluorescence intensity (a.u.)
11,TCTTCATCTTTGCTTCGGAGCAGACATTCTACTTCAACAACGGAGTCACCTAGTGCAG,8790 fluorescence intensity (a.u.)
12,ATATGCTGTTCATTGTTGAATTCTGTTTGTGTCACCTTCTCGGAGTCACCTAGTGCAG,9180 fluorescence intensity (a.u.)
13,CTACTCCTACTTCGTTTTACCACTAAGCGGTCTGGACGATCGGAGTCACCTAGTGCAG,10000 fluorescence intensity (a.u.)
14,GCCGCACTGGACTGTGCTGTACATGTTGTTCACATATCTTCGGAGTCACCTAGTGCAG,8270 fluorescence intensity (a.u.)
15,GATTGTTTTCTCTCTCACTCACTCCGCTGTATATATATCTCGGAGTCACCTAGTGCAG,8230 fluorescence intensity (a.u.)
16,GTTCACGGCCACCACTATCGTGTTGTCTTTGTGTCGTTGTCGGAGTCACCTAGTGCAG,10000 fluorescence intensity (a.u.)
17,CTAGATTCATATGTACATCATCGTATTCGTATTCTTTCCACGGAGTCACCTAGTGCAG,8110 fluorescence intensity (a.u.)
18,GGTCTTGTATTTATACCTATAGGTGTTCCCTTGTCCAAGTCGGAGTCACCTAGTGCAG,9690 fluorescence intensity (a.u.)
19,GAGTAAGACGAATAGTCAAACATGTGAGAAAAGTCAACGGCGGAGTCACCTAGTGCAG,11600 fluorescence intensity (a.u.)
20,ATCTCCAAACTCTCTCTGTTGTTCCCATCTGCCGGAGGCCCGGAGTCACCTAGTGCAG,9550 fluorescence intensity (a.u.)
21,AGCCCAATATTTCGATCAAACGCTGACTCCATATCGCCTTCGGAGTCACCTAGTGCAG,8260 fluorescence intensity (a.u.)
